Results from one PubChem assay

Source: PubChem BioAssay AID1159506 (NCATS, 2015).

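Luminescence from an EWS-FLI1 target-promoter (NR0B1) reporter, set against a CMV-promoter reporter, two days after silencing single genes in TC32 Ewing sarcoma cells.
Each siRNA was applied at 20 nM.
A z-score of the log NR0B1-over-CMV signal, less the median of siRNAs with the same seed; more negative means a stronger specific loss of the NR0B1 reporter.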

The strongest results of the screen are mostly left out here.
Sequences are the guide (antisense) strand, without overhang.

Sequence	target gene	seed-corrected z-score
UAUGUUAUCAAGGCAGUGU	HSPB6	-0.3719
UUCCGGUAGACAUAGCACG	ANKH	0.2032
UGUCACAUAACUACCGAAG	DYNLL1	-1.098
UUGGGUAGGUGCAUAGUGC	GPT2	-0.6531
AAAUGGACAGAAGACGUGC	EFCAB6	0.5404
UAUUAGUUCUCAUGAUUCG	MMP27	0.7363
UUGAUAUCCAAAAUUUCGC	KIF23	-0.9882
UCAUCGGAAAACAUGCUCA	HSPB7	-0.7864
UACUUUGUUGUCCACAUCC	SARS	-0.2946
UUGCUGUAAAGGAUUCAUG	RALB	0.4445
UAACUUCCUUUGUACACUC	SLCO1A2	-0.3036
UUCCGAUUUGUUACCUUGC	POLR3K	-0.1425
UUCCUUGAUAGAGCCCAUG	CD53	0.2676
UAACUAAUGAGCUUAGAGU	OR11H12	1.01
UACCACUAAACUACUAUCC	ZNHIT6	0.7582
UAUCUUGCAAAAGGGAUCC	EIF2AK4	0.8792
UUGUAGUUGACAAAGUUGC	RFFL	-0.0587
UUCACAUUGAUGUUCUCCU	RAB3D	-0.2121
UUAGUCAGGAGCAUUCGCC	INTS2	0.06364
AAUCUAAAUGCUAUGCUCC	GMCL1	0.7926
UCACCAACCAAAACCAGCG	DUOXA2	0.3249
UUCCUGCACAGUGUCAUGU	FFAR4	-0.607
UACUGAUUCAACACUCGGC	CYP4X1	0.07563
UUGGUAAUCUUGGUCACCG	MBD3	-0.3529
UCAUCCAAAGUGAAGCUUC	PROSER2	-0.1053
AAAGAAAGCACAUCGGUUG	YBEY	0.1483
UUUCGUUCGUCAUACACUC	SMC3	1.316
UACUGUGAAGCGACUCAUG	TMEM52B	-0.7781
AAAGAGUCUCUGGUUAUAC	ARHGAP4	0.2749
UCACGAUGUAUUUAAAUGG	DYNLT1	-0.3033
ACAGUGUAAAGUGAAUAGG	AKR7A2	0.1076
UCAAGGUAUAAAUAAGAGG	OR2G2	0.405
UCAUGAGCAACUUCAUGCU	DYDC2	0.1691
UACGUGCCCAUGACUGUAC	OR1A1	-0.6633
UGUACUUCCUGUAAAUUUC	FBXO39	-0.6448
ACAUGGAACAUGGAUAGGG	HDAC10	0.1906
AACUCAAUAGCAUUCACCC	MKRN1	-0.8762
UAUGCUAUGCUGGUCUUUG	PELI1	0.178
UCAAGGAUAUCCUCUAUUC	KYNU	0.07559
UGUGUGCACAGCAAAUGGC	C1QTNF8	-1.016
UAGUCGUUCACGUUCACCU	EFNA3	1.237
UAUUCUUCUCGGAUCUUGC	TUBB	0.04861
UCUCCGUCUAUACCGAUCC	RBM23	0.1116
UUCAUUCCAGUAGUACAGG	MIR924HG	-0.7551
UGUAAAUCUGGGUGGAUUC	NEK4	-0.5427
UUUGGAGUAACAUUGGAAG	OR5M10	-0.2004
UUCAUUGUACAAACUGUCU	ST6GAL1	0.6159
UUUCUUUUGACAAGGAGCG	KCNS3	-0.5406
UCUGGAUUCGACAUUGGGC	RGMB	1.087
AUAGAUGUCAGAAGUCUCG	DTX3	0.1905
UUCUUGAUGAAGUCGCGGU	EEF1A2	-0.3859
UACGGUUUAGCAGCUUUGC	POFUT1	-0.5518
UAAGAUCCCAGUCGCAUAC	HP	-0.8891
UUCAGGUAGAUGAGUCUCG	LRRC32	1.29
AAUAUCAUUACUGUUGUUC	NACA2	0.7069
UAGUAUAAAGGAGUUAAGC	FAM127C	-0.2959
UCGGUUAGAACAUCCGACG	SLFN5	0.4039
UCUCGGAGUAGUUCAGUGC	ZBTB22	-0.1376

Some entries from above, unchanged:

- UUCAUUCCAGUAGUACAGG against MIR924HG | seed-corrected z-score -0.7551
- UCAUCGGAAAACAUGCUCA against HSPB7 | seed-corrected z-score -0.7864
- AAAGAGUCUCUGGUUAUAC against ARHGAP4 | seed-corrected z-score 0.2749